Source: paper PMC7880295
These are yes or no findings as the source states them, for the method shown. For some of these results: Binding seen in cells or lysates may run through a third protein. Some binding calls cover weakened binding; strength is not graded here. One block for each substance: values may come before it.

Chains of the proteins cited; added tags and fusions are not shown. Lines headed by an entry give the natural chain unless they say otherwise; changes in a name come on top. A line that says so, or that is headed by a name, gives the form on record, which may keep a tag or linker. Residues count along the entry.
TRKB, endogenous in rat primary cortical neurons (rat (endogenous in primary cortical neurons)) (Q63604, residues 32-821): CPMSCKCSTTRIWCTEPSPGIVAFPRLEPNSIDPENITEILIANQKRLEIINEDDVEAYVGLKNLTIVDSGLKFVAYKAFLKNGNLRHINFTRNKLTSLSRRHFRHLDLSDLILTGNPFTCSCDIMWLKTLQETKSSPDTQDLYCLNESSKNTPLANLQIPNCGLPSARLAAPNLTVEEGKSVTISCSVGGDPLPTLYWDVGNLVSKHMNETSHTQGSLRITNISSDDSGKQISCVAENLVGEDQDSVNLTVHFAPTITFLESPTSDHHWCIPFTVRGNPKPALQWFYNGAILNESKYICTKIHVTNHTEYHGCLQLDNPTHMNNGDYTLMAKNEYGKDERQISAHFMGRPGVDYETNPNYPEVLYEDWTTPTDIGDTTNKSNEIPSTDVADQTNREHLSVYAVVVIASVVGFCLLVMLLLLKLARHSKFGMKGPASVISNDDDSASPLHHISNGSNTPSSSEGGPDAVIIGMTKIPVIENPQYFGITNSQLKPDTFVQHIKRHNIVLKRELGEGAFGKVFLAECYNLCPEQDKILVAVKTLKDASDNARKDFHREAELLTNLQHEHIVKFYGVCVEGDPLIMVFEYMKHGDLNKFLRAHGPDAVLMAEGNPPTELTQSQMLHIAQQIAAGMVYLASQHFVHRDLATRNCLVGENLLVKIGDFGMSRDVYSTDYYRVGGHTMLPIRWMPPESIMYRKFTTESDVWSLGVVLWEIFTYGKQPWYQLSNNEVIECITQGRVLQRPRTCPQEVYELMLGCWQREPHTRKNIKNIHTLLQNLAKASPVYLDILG
TRKB carrying Y433F/R427A mutation (Q63604, form named): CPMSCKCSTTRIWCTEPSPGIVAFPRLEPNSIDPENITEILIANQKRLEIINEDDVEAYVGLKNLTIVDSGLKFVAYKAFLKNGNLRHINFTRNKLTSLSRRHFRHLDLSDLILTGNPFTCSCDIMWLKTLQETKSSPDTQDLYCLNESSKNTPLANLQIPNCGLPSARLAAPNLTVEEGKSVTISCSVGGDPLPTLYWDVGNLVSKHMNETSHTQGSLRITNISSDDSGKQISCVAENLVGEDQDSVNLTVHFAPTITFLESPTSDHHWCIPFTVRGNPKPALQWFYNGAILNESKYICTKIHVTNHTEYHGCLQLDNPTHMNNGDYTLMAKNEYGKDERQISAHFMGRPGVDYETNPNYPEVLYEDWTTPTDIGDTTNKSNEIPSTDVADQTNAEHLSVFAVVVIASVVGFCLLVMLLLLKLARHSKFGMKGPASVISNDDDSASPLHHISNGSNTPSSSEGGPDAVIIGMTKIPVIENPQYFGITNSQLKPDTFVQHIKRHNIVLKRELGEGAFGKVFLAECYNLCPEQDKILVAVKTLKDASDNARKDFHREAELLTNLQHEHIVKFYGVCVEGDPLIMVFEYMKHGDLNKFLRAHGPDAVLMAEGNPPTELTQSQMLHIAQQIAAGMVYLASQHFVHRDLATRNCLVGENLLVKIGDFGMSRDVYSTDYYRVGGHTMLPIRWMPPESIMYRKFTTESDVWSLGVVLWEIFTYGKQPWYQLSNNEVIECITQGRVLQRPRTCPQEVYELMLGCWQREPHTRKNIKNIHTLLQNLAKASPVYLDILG
PTPσ, endogenous in rat primary cortical neurons (Q64605, residues 30-1907): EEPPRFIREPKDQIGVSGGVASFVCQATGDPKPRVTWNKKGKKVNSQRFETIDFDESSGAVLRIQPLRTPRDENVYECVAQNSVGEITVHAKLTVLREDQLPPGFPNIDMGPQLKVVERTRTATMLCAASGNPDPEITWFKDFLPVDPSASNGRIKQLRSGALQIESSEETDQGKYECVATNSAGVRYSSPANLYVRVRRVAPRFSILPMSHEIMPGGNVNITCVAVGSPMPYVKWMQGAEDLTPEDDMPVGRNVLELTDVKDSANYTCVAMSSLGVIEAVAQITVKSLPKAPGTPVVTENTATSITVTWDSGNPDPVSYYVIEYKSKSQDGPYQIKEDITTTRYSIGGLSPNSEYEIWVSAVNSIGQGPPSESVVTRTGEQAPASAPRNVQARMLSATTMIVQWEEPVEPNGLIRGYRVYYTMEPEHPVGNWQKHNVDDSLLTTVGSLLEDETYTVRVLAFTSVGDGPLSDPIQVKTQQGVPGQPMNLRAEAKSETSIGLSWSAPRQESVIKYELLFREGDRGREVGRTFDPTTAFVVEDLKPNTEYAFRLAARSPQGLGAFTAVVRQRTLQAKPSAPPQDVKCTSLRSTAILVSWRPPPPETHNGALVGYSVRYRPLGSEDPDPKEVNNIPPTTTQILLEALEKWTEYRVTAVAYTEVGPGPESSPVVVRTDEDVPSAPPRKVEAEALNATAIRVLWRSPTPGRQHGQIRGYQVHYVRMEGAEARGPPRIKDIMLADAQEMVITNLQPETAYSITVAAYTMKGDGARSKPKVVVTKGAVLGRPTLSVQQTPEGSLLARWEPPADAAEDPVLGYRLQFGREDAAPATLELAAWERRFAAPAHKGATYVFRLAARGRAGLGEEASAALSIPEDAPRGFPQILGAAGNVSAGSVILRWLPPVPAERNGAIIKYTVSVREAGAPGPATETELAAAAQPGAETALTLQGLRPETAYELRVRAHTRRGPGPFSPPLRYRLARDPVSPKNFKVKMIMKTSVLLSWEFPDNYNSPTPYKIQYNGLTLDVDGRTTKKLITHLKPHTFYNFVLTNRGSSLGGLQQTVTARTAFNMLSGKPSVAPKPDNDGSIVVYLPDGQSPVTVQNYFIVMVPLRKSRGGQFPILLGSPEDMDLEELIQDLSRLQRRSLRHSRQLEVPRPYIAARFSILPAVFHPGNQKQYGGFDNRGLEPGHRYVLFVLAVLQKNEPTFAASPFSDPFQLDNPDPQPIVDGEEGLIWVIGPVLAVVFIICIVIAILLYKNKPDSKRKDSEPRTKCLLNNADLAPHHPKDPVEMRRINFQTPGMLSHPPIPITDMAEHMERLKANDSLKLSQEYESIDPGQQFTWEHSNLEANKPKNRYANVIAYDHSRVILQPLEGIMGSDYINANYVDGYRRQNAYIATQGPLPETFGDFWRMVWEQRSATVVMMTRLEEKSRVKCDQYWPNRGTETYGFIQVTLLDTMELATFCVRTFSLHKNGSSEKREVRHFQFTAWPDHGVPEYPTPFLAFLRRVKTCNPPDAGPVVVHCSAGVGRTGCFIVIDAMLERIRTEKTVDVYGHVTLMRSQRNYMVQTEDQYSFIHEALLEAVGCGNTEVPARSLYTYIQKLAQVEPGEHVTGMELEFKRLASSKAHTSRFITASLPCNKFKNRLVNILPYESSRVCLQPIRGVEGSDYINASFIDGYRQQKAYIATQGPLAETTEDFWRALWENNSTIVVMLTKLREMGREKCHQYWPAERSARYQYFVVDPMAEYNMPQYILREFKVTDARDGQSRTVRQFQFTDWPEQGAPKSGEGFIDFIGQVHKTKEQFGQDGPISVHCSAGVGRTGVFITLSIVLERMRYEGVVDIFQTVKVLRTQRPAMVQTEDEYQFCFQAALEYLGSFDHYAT
UniProt Q13332, residues 30-1948: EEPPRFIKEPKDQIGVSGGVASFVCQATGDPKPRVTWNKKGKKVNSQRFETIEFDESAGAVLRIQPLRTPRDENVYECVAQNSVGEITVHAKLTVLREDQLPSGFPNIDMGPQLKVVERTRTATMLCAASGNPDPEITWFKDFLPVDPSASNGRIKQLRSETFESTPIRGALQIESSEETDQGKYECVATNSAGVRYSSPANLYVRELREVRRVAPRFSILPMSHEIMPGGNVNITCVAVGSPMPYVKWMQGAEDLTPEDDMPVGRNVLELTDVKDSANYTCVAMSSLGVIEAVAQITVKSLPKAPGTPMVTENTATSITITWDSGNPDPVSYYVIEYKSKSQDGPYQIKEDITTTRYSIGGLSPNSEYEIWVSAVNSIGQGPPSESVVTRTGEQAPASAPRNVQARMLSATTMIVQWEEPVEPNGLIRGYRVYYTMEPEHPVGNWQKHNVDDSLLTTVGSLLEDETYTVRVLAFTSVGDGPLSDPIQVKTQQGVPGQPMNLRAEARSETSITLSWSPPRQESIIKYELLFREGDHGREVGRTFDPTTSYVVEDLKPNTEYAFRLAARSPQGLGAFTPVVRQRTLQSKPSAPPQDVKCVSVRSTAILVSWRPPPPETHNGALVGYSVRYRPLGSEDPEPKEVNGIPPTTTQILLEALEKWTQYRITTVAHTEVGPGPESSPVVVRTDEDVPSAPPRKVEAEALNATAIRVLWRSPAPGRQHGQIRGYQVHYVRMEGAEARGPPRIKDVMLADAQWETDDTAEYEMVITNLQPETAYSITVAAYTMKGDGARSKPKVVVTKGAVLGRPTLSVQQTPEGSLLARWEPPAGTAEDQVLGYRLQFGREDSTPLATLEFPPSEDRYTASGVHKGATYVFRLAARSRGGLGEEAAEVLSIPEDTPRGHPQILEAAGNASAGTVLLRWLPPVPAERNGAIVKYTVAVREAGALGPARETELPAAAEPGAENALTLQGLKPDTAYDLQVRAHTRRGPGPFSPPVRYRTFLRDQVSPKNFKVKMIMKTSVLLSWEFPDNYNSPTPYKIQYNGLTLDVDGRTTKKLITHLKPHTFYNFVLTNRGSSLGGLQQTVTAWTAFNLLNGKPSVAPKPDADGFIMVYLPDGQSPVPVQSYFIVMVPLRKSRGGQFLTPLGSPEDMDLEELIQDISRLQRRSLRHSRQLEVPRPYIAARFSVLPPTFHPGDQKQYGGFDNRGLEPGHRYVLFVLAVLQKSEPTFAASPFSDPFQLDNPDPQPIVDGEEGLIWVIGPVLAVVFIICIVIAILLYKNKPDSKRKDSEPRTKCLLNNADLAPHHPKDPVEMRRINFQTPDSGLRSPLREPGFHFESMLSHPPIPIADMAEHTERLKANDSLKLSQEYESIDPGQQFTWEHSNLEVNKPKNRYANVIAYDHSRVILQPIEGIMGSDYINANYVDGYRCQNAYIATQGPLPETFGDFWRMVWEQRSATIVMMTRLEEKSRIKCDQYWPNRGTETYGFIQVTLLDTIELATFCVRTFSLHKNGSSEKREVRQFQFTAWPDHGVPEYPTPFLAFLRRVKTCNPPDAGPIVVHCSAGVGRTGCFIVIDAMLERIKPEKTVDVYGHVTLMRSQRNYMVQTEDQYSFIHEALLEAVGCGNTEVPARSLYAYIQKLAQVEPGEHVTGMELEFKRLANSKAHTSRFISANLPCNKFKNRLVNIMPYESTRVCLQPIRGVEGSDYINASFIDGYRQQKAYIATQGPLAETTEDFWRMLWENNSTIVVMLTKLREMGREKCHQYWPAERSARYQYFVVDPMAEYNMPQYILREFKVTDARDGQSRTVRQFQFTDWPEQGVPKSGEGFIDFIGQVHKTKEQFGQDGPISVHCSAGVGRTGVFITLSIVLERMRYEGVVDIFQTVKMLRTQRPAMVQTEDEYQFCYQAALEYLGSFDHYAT

Experiments:
[1] = target: full-length TRKB stably expressed in MG87.TRKB mouse fibroblast cells (UniProt Q63604); assay: co-IP; MG87.TRKB cells, transfected with myc-PTPσ or non-transfected; lysed in NP lysis buffer; immunoprecipitated with anti-TRKB antibody and Sepharose, blotted for PTPσ, reblotted for TRKB; MG87.TRKA cells as control of the antibody
[2] = target: GFP-tagged full-length TRKB (plasmid HP220GFP-TRKB) (UniProt Q63604); assay: ELISA; HEK293T cells transfected with WT or R427A/Y433F TRKB, vehicle or fluoxetine 10 uM for 30 min; TRKB captured with anti-TRKB antibody, bound PTPσ detected with anti-PTPσ antibody
[3] = target: TRKB carrying Y433F/R427A mutation (UniProt Q63604); assay: as above
[4] = target: TRKB, endogenous in rat primary cortical neurons (rat (endogenous in primary cortical neurons)) (UniProt Q63604); assay: ELISA; rat primary cortical neurons 7 DIV, vehicle or fluoxetine 0.1 and 1 uM for 30 min; TRKB captured on the plate with anti-TRKB antibody, bound PTPσ detected with anti-PTPσ antibody

binding [1]: binds
Substance: PTPσ Myc-DDK-tagged (OriGene ORF plasmid RR209636) (from UniProt Q64605-2 30-1863) (receptor)

binding [2]: binds | binding [3]: binds
Substance: PTPσ in HEK293T cells (from UniProt Q13332 30-1948) (receptor)

binding [4]: binds
Substance: PTPσ, endogenous in rat primary cortical neurons (from UniProt Q64605 30-1907) (receptor)
